Results taken from patent US20200407445A1.
These are yes or no findings as the source states them, for the method shown. Some results given as binding are weak or reduced against the parent protein; the word gives no strength.

Protein sequences, listed by entry. Tags and fused reporters are not part of them. Residues count along the entry.
UniProt Q495A1, residues 22-244: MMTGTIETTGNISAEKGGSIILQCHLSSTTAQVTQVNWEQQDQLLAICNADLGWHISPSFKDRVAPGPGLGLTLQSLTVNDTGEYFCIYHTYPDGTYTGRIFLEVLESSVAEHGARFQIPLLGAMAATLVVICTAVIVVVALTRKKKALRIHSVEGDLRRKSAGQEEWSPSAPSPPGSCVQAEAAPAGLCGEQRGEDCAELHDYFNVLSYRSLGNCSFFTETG

Legend:
[1] = target: cynomolgus TIGIT on primary CD8+ T cells (Macaca fascicularis (cynomolgus)); test: flow cytometry on stimulated cynomolgus PBMC, % TIGIT+ gated on CD69+CD8+ T cells
[2] = target: human TIGIT expressed on cells (human) (UniProt Q495A1); test: flow cytometry on PBMC of cancer patients, MFI TIGIT on gated TIGIT+CD8+ T cells
[3] = target: human TIGIT expressed on cells (human) (UniProt Q495A1); test: flow cytometry on Jurkat-hTIGIT, detected with anti-human Ig (Fc gamma)-PE
[4] = target: human TIGIT expressed on cells (human) (UniProt Q495A1); test: flow cytometry on Jurkat-hTIGIT
[5] = target: human TIGIT expressed on cells (human) (UniProt Q495A1); test: flow cytometry competition on Jurkat-hTIGIT: cells incubated with the antibody, washed, then CD155-His at 15 µg/ml, bound CD155 detected with anti-His-PE
[6] = target: human TIGIT expressed on cells (human) (UniProt Q495A1); test: flow cytometry on PBMC of healthy human donors, MFI TIGIT on gated TIGIT+CD8+ T cells

Row | Binder | binding [1] | binding [2] | binding [3] | binding [4] | binding [5] | binding [6]
1 | anti-TIGIT antibody clone 29520 (IgG) (antibody, V domains shown) VH: QVQLVESGGGLVQPGRSLRLSCAASGFTFRDYAMHWVRQAPGKGLEWVSGITWNSGLIGYADSVKGRFTISRDNAKNSLYLQMNSLRAEDTALYYCAKPVPRLRGLDVWGQGTMVTVSS VL: DIQLTQSPSSVSASVGDRVTITCRASQGISSWLAWYQQKPGKAPKLLIYGASSLQSGVPSRFSGSGSGTDFTLTISSLQPEDFATYYCQQAFYLPWTFGGGTKVEIK | binds | – | – | – | – | –
2 | anti-TIGIT antibody clone 29527 (IgG) (antibody, V domains shown) VH: QVQLVESGGGVVQPGRSLRLSCAASGFTFSSSYMHWVRQAPGKGLEWVAVIGADGSNKYYADSVEGRFTISRDNSKNTLYLQMNSLRAEDTALYYCAKPVPRRRGLDVWGQGTMVTVSS VL: DIQLTQSPSSVSASVGDRVTITCRASQGISSWLAWYQQKPGKAPKLLIYGASSLQSGVPSRFSGSGSGTDFTLTISSLQPEDFATYYCQQAFYLPWTFGGGTKVEIK | binds | – | – | – | – | –
3 | 313M32 (comparative anti-TIGIT antibody, human IgG1) (antibody, V domains shown) VH: QVQLQESGPGLVKPSETLSLTCAVSGYSITSDYAWNWIRQPPGKGLEWIGYISYSGSTSYNPSLRSRVTISRDTSKNQFFLKLSSVTAADTAVYYCARRQVGLGFAYWGQGTLVTVSS VL: DIQMTQSPSSLSASVGDRVTITCKASQDVSTAVAWYQQKPGKAPKLLIYSASYRYTGVPSRFSGSGSGTDFTFTISSLQPEDIATYYCQQHYSTPWTFG | – | binds | binds | binds | binds | binds
